“And” between values parts separate entries of the source, which are not always exact repeats. Identical values can stand only once. For at least one compound, name, drawing or mass did not settle the structure.
Tests used:
RyR2 [1] = molecular target: T1, RyR2 (Sus scrofa, UniProt A0A5G2R1W3); assay: RyR2 single channel recording in artificial lipid bilayers; format: biochemical, porcine; details: relative to vehicle (DMSO); 100 nM cytosolic Ca2+, 2 mM ATP; read-out: IC50, RyR2 open probability
T1 construct: isolated SR vesicles derived from porcine cardiac muscle; from tissue; host or cells: porcine heart (cardiac sarcoplasmic reticulum vesicles)

By UniProt entry, the sequences of proteins in these tests, tags left out. Residues count along the entry.
UniProt A0A5G2R1W3, 20-4900: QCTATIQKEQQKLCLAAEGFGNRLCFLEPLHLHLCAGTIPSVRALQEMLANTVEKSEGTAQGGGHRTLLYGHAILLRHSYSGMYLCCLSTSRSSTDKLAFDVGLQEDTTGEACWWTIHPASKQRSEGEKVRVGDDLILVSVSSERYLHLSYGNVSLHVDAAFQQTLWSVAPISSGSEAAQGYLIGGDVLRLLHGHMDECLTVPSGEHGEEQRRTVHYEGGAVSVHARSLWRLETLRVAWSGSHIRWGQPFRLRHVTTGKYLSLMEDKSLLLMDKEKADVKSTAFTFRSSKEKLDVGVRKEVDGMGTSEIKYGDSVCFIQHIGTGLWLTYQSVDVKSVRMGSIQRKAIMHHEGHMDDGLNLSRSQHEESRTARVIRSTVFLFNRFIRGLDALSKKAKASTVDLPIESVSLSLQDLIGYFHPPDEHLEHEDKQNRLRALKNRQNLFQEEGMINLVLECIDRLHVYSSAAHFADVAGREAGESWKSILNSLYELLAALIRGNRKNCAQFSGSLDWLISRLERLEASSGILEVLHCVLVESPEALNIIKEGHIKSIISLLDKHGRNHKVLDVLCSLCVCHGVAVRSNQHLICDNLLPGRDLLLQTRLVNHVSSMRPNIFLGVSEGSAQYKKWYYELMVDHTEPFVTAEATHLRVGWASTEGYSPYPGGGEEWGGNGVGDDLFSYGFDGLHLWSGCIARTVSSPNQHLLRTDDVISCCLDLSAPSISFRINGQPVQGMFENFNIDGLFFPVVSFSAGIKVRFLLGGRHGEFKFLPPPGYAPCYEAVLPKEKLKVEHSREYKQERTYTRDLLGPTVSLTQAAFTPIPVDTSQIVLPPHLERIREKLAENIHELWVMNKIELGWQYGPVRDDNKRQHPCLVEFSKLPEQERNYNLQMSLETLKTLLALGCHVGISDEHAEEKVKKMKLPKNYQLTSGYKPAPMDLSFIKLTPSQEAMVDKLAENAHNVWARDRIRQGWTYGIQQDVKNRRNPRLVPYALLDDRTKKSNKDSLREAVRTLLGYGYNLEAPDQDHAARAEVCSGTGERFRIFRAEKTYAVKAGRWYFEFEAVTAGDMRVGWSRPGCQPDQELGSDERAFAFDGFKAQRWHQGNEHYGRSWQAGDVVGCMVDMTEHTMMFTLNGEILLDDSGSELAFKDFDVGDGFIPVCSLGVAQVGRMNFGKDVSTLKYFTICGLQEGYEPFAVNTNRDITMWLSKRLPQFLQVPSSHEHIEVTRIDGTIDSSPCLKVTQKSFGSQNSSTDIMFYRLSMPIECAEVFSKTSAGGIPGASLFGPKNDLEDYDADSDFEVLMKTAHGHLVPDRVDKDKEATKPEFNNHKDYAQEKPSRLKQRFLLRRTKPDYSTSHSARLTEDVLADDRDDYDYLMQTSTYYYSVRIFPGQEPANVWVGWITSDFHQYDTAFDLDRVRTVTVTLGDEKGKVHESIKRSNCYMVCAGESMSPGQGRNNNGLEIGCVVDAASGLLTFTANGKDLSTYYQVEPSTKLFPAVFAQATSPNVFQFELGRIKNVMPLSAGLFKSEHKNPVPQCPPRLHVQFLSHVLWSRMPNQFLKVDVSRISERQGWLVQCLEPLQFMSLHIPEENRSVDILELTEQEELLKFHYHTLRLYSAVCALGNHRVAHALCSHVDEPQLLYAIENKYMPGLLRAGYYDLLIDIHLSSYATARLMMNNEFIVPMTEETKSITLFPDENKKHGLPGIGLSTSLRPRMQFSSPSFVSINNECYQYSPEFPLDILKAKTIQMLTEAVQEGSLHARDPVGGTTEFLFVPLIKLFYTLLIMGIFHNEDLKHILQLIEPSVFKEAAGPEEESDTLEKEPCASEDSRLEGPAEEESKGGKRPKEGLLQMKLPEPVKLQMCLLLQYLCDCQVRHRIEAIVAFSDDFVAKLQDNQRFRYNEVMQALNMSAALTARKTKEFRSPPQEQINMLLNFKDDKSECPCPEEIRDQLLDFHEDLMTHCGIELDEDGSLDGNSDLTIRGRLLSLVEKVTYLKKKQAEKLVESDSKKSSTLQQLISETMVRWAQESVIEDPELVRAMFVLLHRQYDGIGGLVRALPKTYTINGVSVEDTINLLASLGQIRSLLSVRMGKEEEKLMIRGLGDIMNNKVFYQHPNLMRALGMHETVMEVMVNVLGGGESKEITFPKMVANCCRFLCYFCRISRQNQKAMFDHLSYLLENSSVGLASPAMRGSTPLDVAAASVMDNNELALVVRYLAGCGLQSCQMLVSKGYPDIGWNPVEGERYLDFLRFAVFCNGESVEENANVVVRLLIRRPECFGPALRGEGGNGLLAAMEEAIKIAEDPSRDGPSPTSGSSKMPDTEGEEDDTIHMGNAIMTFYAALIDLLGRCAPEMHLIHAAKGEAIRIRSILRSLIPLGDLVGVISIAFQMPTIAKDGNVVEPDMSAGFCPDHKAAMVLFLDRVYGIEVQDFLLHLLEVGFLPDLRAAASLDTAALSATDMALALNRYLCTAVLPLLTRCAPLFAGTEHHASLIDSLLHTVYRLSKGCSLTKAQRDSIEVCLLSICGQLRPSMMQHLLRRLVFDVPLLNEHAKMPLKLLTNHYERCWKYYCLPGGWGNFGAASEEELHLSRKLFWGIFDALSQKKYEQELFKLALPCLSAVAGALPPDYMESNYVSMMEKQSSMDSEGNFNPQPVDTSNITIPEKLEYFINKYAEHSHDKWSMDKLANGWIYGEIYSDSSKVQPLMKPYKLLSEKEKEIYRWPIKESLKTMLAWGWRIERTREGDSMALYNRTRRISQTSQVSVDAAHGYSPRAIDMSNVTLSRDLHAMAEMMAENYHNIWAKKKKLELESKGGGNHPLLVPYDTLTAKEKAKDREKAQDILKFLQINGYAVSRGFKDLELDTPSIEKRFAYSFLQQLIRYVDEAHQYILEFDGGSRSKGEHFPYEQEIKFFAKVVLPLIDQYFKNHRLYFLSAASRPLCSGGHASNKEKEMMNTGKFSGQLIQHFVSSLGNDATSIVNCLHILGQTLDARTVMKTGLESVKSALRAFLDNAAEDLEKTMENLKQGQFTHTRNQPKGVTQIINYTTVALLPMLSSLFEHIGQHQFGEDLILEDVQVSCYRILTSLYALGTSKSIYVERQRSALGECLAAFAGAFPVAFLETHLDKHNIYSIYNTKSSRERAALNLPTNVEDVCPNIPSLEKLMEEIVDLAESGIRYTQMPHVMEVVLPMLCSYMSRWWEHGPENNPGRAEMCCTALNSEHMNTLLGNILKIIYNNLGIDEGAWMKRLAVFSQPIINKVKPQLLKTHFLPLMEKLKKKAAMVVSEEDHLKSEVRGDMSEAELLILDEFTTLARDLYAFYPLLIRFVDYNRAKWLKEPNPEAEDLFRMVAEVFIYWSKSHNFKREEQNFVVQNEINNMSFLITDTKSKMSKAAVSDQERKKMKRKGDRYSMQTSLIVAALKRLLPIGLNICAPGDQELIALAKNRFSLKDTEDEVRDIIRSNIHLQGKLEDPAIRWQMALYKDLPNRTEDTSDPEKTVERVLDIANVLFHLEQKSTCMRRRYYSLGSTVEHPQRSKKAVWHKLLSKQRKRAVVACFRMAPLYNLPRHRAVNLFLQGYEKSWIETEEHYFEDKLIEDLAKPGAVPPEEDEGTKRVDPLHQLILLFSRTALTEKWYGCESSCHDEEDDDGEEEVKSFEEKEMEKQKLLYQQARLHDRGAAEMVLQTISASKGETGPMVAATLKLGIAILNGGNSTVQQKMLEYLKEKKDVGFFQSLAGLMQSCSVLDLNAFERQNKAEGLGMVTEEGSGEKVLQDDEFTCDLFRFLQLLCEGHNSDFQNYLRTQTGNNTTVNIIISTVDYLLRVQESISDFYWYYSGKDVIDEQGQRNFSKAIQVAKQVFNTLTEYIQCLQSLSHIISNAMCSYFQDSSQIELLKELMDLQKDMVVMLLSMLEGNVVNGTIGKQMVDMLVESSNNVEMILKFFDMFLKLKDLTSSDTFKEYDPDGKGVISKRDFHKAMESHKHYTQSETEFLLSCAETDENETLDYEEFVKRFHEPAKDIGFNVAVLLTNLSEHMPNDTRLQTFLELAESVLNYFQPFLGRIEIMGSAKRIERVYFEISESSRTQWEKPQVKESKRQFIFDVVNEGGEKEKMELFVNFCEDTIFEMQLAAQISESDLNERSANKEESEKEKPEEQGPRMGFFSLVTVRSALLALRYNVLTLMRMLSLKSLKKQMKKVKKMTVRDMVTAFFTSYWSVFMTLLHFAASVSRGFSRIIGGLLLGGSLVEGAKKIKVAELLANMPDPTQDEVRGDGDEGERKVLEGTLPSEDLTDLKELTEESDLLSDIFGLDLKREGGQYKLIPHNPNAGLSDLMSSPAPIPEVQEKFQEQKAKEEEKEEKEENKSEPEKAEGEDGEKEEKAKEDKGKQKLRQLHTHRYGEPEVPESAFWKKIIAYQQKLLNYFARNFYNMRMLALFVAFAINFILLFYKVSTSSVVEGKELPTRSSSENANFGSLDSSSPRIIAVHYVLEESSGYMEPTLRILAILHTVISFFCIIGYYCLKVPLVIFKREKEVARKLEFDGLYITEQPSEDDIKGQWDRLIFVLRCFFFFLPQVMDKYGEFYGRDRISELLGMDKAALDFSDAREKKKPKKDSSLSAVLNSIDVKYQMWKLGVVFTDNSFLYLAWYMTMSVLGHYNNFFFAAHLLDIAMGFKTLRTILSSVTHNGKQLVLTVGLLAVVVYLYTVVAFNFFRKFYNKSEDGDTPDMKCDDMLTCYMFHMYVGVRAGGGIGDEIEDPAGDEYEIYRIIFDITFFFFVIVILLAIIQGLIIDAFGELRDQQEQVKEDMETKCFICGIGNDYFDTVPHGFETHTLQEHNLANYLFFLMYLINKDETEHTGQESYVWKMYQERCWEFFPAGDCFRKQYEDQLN

RyR2 [2] = molecular target: T1, RyR2; assay: [3H]ryanodine ligand binding assay in cardiac SR vesicles; parameters: species or system porcine; details: relative to vehicle (DMSO)
Method: RyR2 activity was quantified by the fraction of [^3H]ryanodine bound to RyR2. […] Data are shown as mean±SD (n=6).
[^3H]ryanodine ligand binding assay—[^3H]ryanodine, [9,21-3H(N)] (56 Ci/mmol) was obtained from PerkinElmer. Porcine cardiac SR vesicles were isolated as previously described (Fruen et al., 2000) and incubated with, 200 nM CaM binding peptide, 0.1 μM CaCl2, 20 mM PIPES, 150 mM KCl, 5 mM GSH, 0.1 mg/mL BSA, 1 μg/mL aprotininin, lug/mL leupeptin, and 1 μM DTT for 30 min at 37° C. […] In 96-well plates, cardiac SR membranes (CSR, 3 mg/mL) were pre-incubated with 1% v/v ent-B1 (to yield the indicated drug concentrations) for 30 min, at 22° C., in a solution containing 150 mM KCl, 5 mM GSH, 1 μg/mL Aprotinin/Leupeptin, 1 mM EGTA, and 23 μM or 1.62 mM CaCl2 (100 nM or 30 μM free Ca^2+, respectively as determined by MaxChelator), 0.1 mg/mL BSA, and 20 mM K-PIPES (pH 7.0). Non-specific [^3H]ryanodine binding to SR was assessed by addition of 15 μM non-radioactive ryanodine. Maximal [^3H]ryanodine binding was assessed by addition of 5 mM adenylyl-imidodiphosphate (AMP-PNP), supplemented with 20 mM caffeine. […] Binding of [^3H]ryanodine (7.5 nM) was determined following a 3 h incubation at 37° C. and filtration through grade GF/B glass microfiber filters (Brandel Inc., Gaithersburg, MD, US) using a M96T-Brandel Harvester. […]

RyR2 [3] = molecular target: T2, RyR2 (Mus musculus, UniProt E9Q401); assay: Intracellular Ca2+ measurements / spontaneous Ca2+ release in intact Casq2-/- cardiomyocytes; format: cell-based; details: after 3 Hz pacing, normalized to vehicle (DMSO); read-out: IC50, spontaneous Ca2+ release (SCR) frequency
T2 construct: spontaneous openings of intracellular RyR2 Ca^2+ release channels; endogenous in cells; host or cells: ventricular cardiomyocytes isolated from Casq2-/- mice (saponin-permeabilized in A1, intact in A7)
Method: FIGS. 4(A-G) show intracellular Ca2+ measurements from intact Casq2−/− cardiomyocytes. […] For panels A-D and G, N=26, 30, 30, 30, and 31 cells for DMSO, 0.03, 0.1, 1, and 3 μM ent-B1, respectively. For panels E and F, N=14, 27, 29, 29, and 30 cells for DMSO, 0.03, 0.1, 1, and 3 μM ent-B1, respectively. Data are shown as mean±SD with individual data points.
FIGS. 10(A-B) show the spontaneous Ca^2+ release in intact mouse Casq2^−/− cardiomyocytes. […] Cells were field stimulated at 3 Hz for 20 s before recording. Blue marks indicate final stimulations of pacing train, arrows SCR events. Recording duration was 40 s before 10 mM caffeine application to assess total SR Ca^2+ content. […] Data are shown as mean±SD.
Intracellular Ca^2+ measurements in intact cardiomyocytes—Ventricular cardiomyocytes were isolated from two male 10-week old and one female 13-week old Casq2^−/− mouse as described previously (Knollmann et al., 2006). Cardiomyocytes were pre-incubated for 2 hours with DMSO or ent-B1. […] Fura2-loaded myocytes were electrically paced at 3 Hz field stimulation and Ca transients were recorded for 20 seconds followed by no electrical stimulation for 40 seconds to record spontaneous Ca release events. […] Fura-2 was measured using a dual-beam excitation fluorescence photometry setup (IonOptix Corp.) and analyzed using commercially available data analysis software (IonWizard, IonOptix, Milton, MA). […]

[4] = In vivo pharmacokinetic study after intraperitoneal administration; parameters: species or system mouse; details: 3 mg/kg i.p., mice
Method: FIGS. 11(A-B) show in vivo pharmacokinetics in mice for a compound of the present invention. […] N=3 mice. Plasma collected serially at 0.167, 0.333. 0.5, 1, 3, and 8 hours post-administration. […] Individual data points (grey) shown alongside mean values with connecting lines.
In vivo pharmacokinetic study—The pharmacokinetic study was carried out by a contract research organization, Pharmaron, Inc. Mice were housed with free access to food and water. All protocols and procedures were compliant with Animal care and Use Application approved by the Institution Animal Care and Use Committee of Pharmaron, Inc., (protocol #PH-DMPK-VUMC-22-003) following the guidance of the Association for Assessment and Accreditation of Laboratory Animal Care (AAALAC). An ent-B1 dose of 3 mg/kg (drug/body weight) was used. Three male CDI mice, age 6-8 weeks, were selected for the study. […]
LC-MS/MS analysis of ent-B1—LC-MS/MS with electronspray ionization in the positive ion mode setting was used to detect ent-B1 followed by multiple reaction monitoring of precursor and product ions as follows: ent-B1 (mass-to-charge ratio [m/z] 640.18 to 214.00). Mouse plasma was quantified using nine standards (0.5-1000 ng/ml) and four quality control levels (1, 2, 50, 800 ng/ml) prepared independently of those used for the standard curve. […]

CCCCC[C@@H]1OC(=O)[C@@H](C)N(C)C(=O)[C@H](CCCCC)OC(=O)[C@@H](C)N(C)C(=O)[C@H](CCCCC)OC(=O)[C@@H](C)N(C)C1=O (single isomer, unassigned) [ent-B1]
IC50 (RyR2 [1]): ~0.24 µM and 0.24 µM | IC50 (RyR2 [2]): 1.3 µM | IC50 (RyR2 [3]): 0.23 ± 0.1 µM | mean elimination half-life (t1/2) [4]: 45 min

Reference: patent US20240174718A1, “RYANODINE RECEPTOR INHIBITOR COMPOUNDS AND METHODS RELATING THERETO” (Vanderbilt University, priority 2022, published 2024)
